Patent publication US20250354096A1, “IN VITRO DEVICE FOR VASCULARIZED MICROFLUIDIC MODELING OF OSTEOCHONDRAL UNIT” (CFD Research Corporation, priority 2024, published 2025)
At least one structure is not confirmed: it was looked up by name or label, or the drawing left a doubt.

Tested on: tri-culture of hMSC derived chondrocytes, hMSC derived osteoblasts and HUVEC
Assay: Inflammatory assay: oxidative stress (CellROX Orange ROS) in tri-culture OC device
Format: cell-based, human
Settings: 100 ng/mL LPS in channel 3 plus 20 ng/mL RAP in channel 4; 4 hours without flow; vasculature, bone, cartilage channels; n=3; FIG. 8
Description: In the tri-culture device, OA-like cues were supplied to observe i) oxidative stress induced by LPS conditioning, and ii) the reduction of the oxidative stress in the simultaneous presence of LPS and the anti-inflammatory drug Rapamycin (RAP). Thus, three conditions were investigated: no insult (control,-LPS-RAP), insult (+LPS−RAP), and insult plus treatment (+LPS+RAP). For the insult, the medium was exchanged in established devices with 100 ng/mL LPS perfused into channel 3 to maximize inflammation across the device by supplying LPS in the closest proximity to both bone and vasculature. […]
Resultant oxidative stress was measured by image processing after four hours by the CellROX™ Orange Reactive Oxygen Species Detection Kit (Thermo Fisher), a fluorometric reactive oxygen species (ROS) assay, according to the manufacture's protocol. […] The same microscope was used to capture images for each experiment and exposure and other microscope settings were kept constant to allow quantitative comparisons between micrographs. Quantitative measurement of relative ROS was conducted by image analysis via ImageJ and Matlab®. Briefly, for each condition (i.e., i)-LPS-RAP; ii)+LPS-RAP; iii)+LPS+RAP) images were split into three regions of interest (ROIs), representing the three channel of the devices (vasculature, bone, cartilage), that were separately analyzed. […]

## CO[C@H]1C[C@@H]2CC[C@@H](C)[C@@](O)(O2)C(=O)C(=O)N2CCCC[C@H]2C(=O)O[C@H]([C@H](C)C[C@@H]2CC[C@@H](O)[C@H](OC)C2)CC(=O)[C@H](C)/C=C(\C)[C@@H](O)[C@@H](OC)C(=O)[C@H](C)C[C@H](C)/C=C/C=C/C=C/1C [rapamycin, Rapamycin]
  oxidative stress / inflammation (relative ROS, normalized image intensity): reduced inflammation across all three compartments
